{"source": "PubChem BioAssay AID1259308 (NCATS, 2017)", "purpose": "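Genes whose loss raises luciferase production in HEK293 cells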 (primary screen)", "cells": "human HEK293 embryonic kidney cells stably expressing firefly luciferase (HEK-CMV-Luc2-Hygro)", "reagent": "single siRNA against human genes, 0.8 pmol siRNA per well", "timing": "72 h", "read-out": "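Luciferase light (ONE-Glo) measured on one replicate plate set and viability (CellTiter-Glo) on the other, scaled to a negative control siRNA, with robust z-scores and luciferase per cell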", "scale": "total luciferase, z-score: higher = more reporter protein produced", "active means": "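Active when the median/MAD z-score for overall luciferase is greater than 3; a gene was taken forward for validation with new siRNAs if at least two of its three siRNAs passed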", "calls": "active = raised luciferase; inactive = no rise", "note": "This is one part, drawn at random, of about 59,000 deposited reagents. Of all reagents, about 1,510 (2.6%) got an active call. 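Calls use total luciferase alone and ignore viability, so some active siRNAs may act by altering cell number.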 Reagents against one gene are numbered here. Not all columns of the deposit are shown."}
{"target gene": "LOC649294 (retired record)", "siRNA no.": 1, "total luciferase, z-score": 1.51, "call": "inactive"}
{"target gene": "LOC649294 (retired record)", "siRNA no.": 2, "total luciferase, z-score": -0.425, "call": "inactive"}
{"target gene": "LOC649294 (retired record)", "siRNA no.": 3, "total luciferase, z-score": 0.22, "call": "inactive"}
{"target gene": "OR9G1", "siRNA no.": 1, "total luciferase, z-score": 0.281, "call": "inactive"}
{"target gene": "OR9G1", "siRNA no.": 2, "total luciferase, z-score": -1.24, "call": "inactive"}
{"target gene": "OR9G1", "siRNA no.": 3, "total luciferase, z-score": 0.311, "call": "inactive"}
{"target gene": "FRMD8", "siRNA no.": 1, "total luciferase, z-score": -0.276, "call": "inactive"}
{"target gene": "FRMD8", "siRNA no.": 2, "total luciferase, z-score": 0.416, "call": "inactive"}
{"target gene": "FRMD8", "siRNA no.": 3, "total luciferase, z-score": 0.76, "call": "inactive"}

A portion taken from the entries so far, as a working copy:
{"target gene": "OR9G1", "siRNA no.": 3, "total luciferase, z-score": 0.311, "call": "inactive"}
{"target gene": "FRMD8", "siRNA no.": 1, "total luciferase, z-score": -0.276, "call": "inactive"}
{"target gene": "FRMD8", "siRNA no.": 2, "total luciferase, z-score": 0.416, "call": "inactive"}

Additional results:
{"target gene": "GADD45G", "siRNA no.": 1, "total luciferase, z-score": 0.112, "call": "inactive"}
{"target gene": "GADD45G", "siRNA no.": 2, "total luciferase, z-score": 0.512, "call": "inactive"}
{"target gene": "GADD45G", "siRNA no.": 3, "total luciferase, z-score": -0.766, "call": "inactive"}
{"target gene": "ZNF503", "siRNA no.": 1, "total luciferase, z-score": 2.66, "call": "inactive"}
{"target gene": "ZNF503", "siRNA no.": 2, "total luciferase, z-score": 0.0345, "call": "inactive"}
{"target gene": "ZNF503", "siRNA no.": 3, "total luciferase, z-score": 0.00547, "call": "inactive"}
{"target gene": "SLC7A9", "siRNA no.": 1, "total luciferase, z-score": -0.865, "call": "inactive"}
{"target gene": "SLC7A9", "siRNA no.": 2, "total luciferase, z-score": -0.0981, "call": "inactive"}
{"target gene": "SLC7A9", "siRNA no.": 3, "total luciferase, z-score": -1.46, "call": "inactive"}
{"target gene": "WDR20", "siRNA no.": 1, "total luciferase, z-score": -0.894, "call": "inactive"}
{"target gene": "WDR20", "siRNA no.": 2, "total luciferase, z-score": -1.11, "call": "inactive"}
{"target gene": "WDR20", "siRNA no.": 3, "total luciferase, z-score": 0.831, "call": "inactive"}
